Taken from: PubChem BioAssay AID743454 (Peter MacCallum Cancer Centre, 2014)
Here is one part, drawn at random, of about 18,000 reagents. Over the whole deposit, 450 (2.5%) were called active. 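Single biological run; no consistent viability z cut-off exists, so the class columns, not z-scores, define the calls.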

Purpose: 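Search for knock-downs that restore vorinostat killing in resistant colon cancer cells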 (primary screen)
Cell system: human HCT116-VR colon cancer cells, selected for vorinostat resistance
Reagents: siRNA pool against human genes, 40 nM siRNA pool
Timing: vorinostat for 24 h, read-out about 72 h after transfection
Challenge: vorinostat at 2.5 µM final
Measurement: 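Cell viability by CellTiter-Fluor and caspase 3/7 activity by luminescence, each scaled to mock wells per plate, duplicates averaged, then robust z-scored over all plates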
Reading the numbers: viability robust z-score: higher = more viable cells than screen typical; caspase robust z-score: higher = more caspase 3/7 activity than screen typical
Rule for the call: 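Hits are knock-downs in viability class RV1/RV2 or caspase class CA1/CA2, excluding ones that killed cells in the no-drug cell-count arm; hits then retested with single siRNAs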

RHCG gave viability hit class no change; caspase hit class no change; viability robust z-score 0.22; caspase robust z-score 0.66; inactive. SPATA25 scored viability hit class no change; caspase hit class no change; viability robust z-score 0.62; caspase robust z-score -0.46; inactive. After knock-down of TRIM74, the screen gave viability hit class no change; caspase hit class no change; viability robust z-score 0.9; caspase robust z-score -0.34; inactive. MOSPD1 scored viability hit class no change; caspase hit class no change; viability robust z-score -0.74; caspase robust z-score 0.83; inactive. After knock-down of CACNB1, the screen gave viability hit class no change; caspase hit class no change; viability robust z-score -0.49; caspase robust z-score 0.04; inactive. Against ZNF195 the deposit lists viability hit class no change; caspase hit class no change; viability robust z-score 0.99; caspase robust z-score 0.14; inactive.

After knock-down of RTL6, the record shows viability hit class no change; caspase hit class no change; viability robust z-score 1.7; caspase robust z-score 0.76; inactive. CXorf38 scored viability hit class no change; caspase hit class no change; viability robust z-score 0.43; caspase robust z-score -0.4; inactive. Depletion of GJB7 came out at: viability hit class no change; caspase hit class no change; viability robust z-score -0.14; caspase robust z-score -1.17; inactive. After knock-down of KRT31 the results were viability hit class no change; caspase hit class no change; viability robust z-score 0.74; caspase robust z-score 0.58; inactive. With knock-down of PPFIA3 the results were viability hit class no change; caspase hit class no change; viability robust z-score 1.16; caspase robust z-score 0.31; inactive. Depletion of NME1-NME2 gave: viability hit class no change; caspase hit class no change; viability robust z-score -2.16; caspase robust z-score -0.66; inactive.
